Reference: article PMC11962113, “An unusual glycerol-3-phosphate dehydrogenase in Sulfolobus acidocaldarius elucidates the diversity of glycerol metabolism across Archaea” (Communications Biology, 2025)
Results are given in words; binding and its absence hold for the method and conditions named. In cells and extracts the contact can be indirect. These calls come from enrichment with a bait or labelling near it, and not all partners need be listed. Tags and fused reporters may be left off the sequences shown.

What was measured:
[1] = target: T1, CoxG homologue Saci_1119, C-terminally HA-tagged (S. acidocaldarius DSM 639) (UniProt Q4J9R0); assay: affinity purification with mass spectrometry; co-IP of C-terminally HA-tagged CoxG from S. acidocaldarius MW00G lysate (25 mM TRIS-HCl pH 7, 150 mM KCl, 5% glycerol, 10 mM EDTA, 2% DDM) with anti-HA magnetic beads, 1 h at room temperature; on-bead digestion, LC-MS/MS, LFQ
T1 sequence: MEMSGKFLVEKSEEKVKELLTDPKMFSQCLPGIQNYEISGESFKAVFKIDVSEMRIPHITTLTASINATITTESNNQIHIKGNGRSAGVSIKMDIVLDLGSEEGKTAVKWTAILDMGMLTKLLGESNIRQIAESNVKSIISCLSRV

[2] = target: T2, CoxG homologue Saci_2031, C-terminally HA-tagged (S. acidocaldarius DSM 639) (UniProt Q4J7A4); assay: as above
T2 sequence: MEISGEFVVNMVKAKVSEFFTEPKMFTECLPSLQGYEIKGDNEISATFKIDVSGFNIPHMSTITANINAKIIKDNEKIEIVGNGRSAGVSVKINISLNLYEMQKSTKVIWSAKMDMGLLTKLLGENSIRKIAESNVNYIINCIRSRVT

Row | Binder | binding [1] | binding [2]
1 | glycerol-3-phosphate dehydrogenase Saci_1118 (endogenous) (enzyme, UniProt Q4J9Q8 1-428) MKQNSSVIVIGGGATGLFTALDLSLRGINVTLVERGDIASGTSGKFHGLLHSGARYAVNDPESAKECKQENEVLSKIAPEFVRDTGGVFVGITEDDVNYSQRFLSALNSLGITNKVMDVEELIRREPFINKKSKIAIWVPDKVVYGYDLLATVALTASLNGAKILTYNEVKRVLREGNSVRRVEVKDNISGETKILNGDIIVNTAGPWAFRVIEMAGLGEIPLLPTAGIMVVMKEKLNSMVINRLRPPSDGDIIVPYGDSSIIGTTATIIPDPDNFEISDEDINMLIEEGAYMIPRLKEVKPERAYASVRPLIKNAEDGRGATRDFMIIDHEKVDSLDGLISVIGGKFTTSRLAGEKVSDMVSEKLGIREKSKTATIKLMSELDEKLLEKKRVPKVLVKMIRERKGSLDEDRYSTAMYILLSLLARGE | binds | –
2 | glycerol-3-phosphate dehydrogenase Saci_2032 (endogenous) (enzyme, UniProt Q4J7A2 1-431) MEIKTSVLVIGGGANGLFTALDLALRGIDVTLVERRDIGSGTSGRFHGLLHSGARYAVTDPESAKECIQENNIISKIAPHAIRDTGGLFLGITKEDLEFLDKFLSSLKKLGIEHKIVDNNQVLQEEPYVNKDLKIAIWVPDKVVYGYDLLSSIAVTGSLNKARIMTYNEVTEFIRDGNSIKGVKVFDKITNQMNLIKSDIIINTSGPWAFKIITMAGLEEIPILPTAGIMAVFGKKVNNAVLNRLRPPSDGDIIVPYQDTSILGTTATIIEDPDNFTISDEDVKMLIKEGSQLVPELSKTRVIRTYASVRPLMRTSEDGRKASRDFTILDHEREDGVSGLISIIGGKFTTSRLVGEKVGDLVSEKLGVRAKSKTKETKLISPSEIDFEKYLEKIGISKIFLKSVMERRGSLDEERYKTVLYLLLSLIARGR | – | binds
